Experimental data as given in patent US12251411B2, “Methods of treating endometrial cancer using hemp extract” (Ecofibre USA Inc., priority 2021, dated 2025).
For at least one compound, name, drawing or mass did not settle the structure.

Test system: patient derived organoids
Experiment: Calculated IC50 of various agents on organoids derived from the chemoresistant patient (PD3D cell culture)
Type: cell-based, human
Settings: organoids of the chemoresistant stage IV patient
Protocol: The IC50 values were calculated from such tests. This value indicates the dosage at which 50% of the organoids were killed due to treatment.

N#CC[C@H](C1CCCC1)n1cc(-c2ncnc3[nH]ccc23)cn1 [Ruxolitinib] was tested, and the “Calculated IC50 PD3D Cell Culture” value was “Not Reached”.
